Assay [1] has as its target T1, cilia and flagella associated protein 53 (CFAP53), MYC-tagged (mouse) (UniProt Q9D439).
T1 sequence: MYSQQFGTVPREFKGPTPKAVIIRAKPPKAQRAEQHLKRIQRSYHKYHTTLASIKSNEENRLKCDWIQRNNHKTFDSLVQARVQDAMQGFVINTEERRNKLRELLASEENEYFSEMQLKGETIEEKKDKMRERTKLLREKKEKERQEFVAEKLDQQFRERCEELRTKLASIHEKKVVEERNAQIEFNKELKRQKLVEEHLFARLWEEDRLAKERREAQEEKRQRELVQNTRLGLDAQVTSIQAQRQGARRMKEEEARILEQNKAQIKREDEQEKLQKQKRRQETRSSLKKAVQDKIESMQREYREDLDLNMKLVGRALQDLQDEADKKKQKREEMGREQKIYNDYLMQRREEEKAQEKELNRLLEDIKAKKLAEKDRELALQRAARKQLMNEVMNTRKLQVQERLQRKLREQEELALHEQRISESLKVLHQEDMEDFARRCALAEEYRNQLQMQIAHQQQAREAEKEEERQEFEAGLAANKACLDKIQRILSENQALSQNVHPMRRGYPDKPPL
Briefly: co-IP; HEK293T cells co-transfected with Myc-Cfap53 and Flag-Ift20, collected 48 h after transfection; IP with anti-MYC antibody; blots with anti-MYC and anti-FLAG.

By UniProt entry, the sequences of proteins in these tests, tags left out.
UniProt Q61025: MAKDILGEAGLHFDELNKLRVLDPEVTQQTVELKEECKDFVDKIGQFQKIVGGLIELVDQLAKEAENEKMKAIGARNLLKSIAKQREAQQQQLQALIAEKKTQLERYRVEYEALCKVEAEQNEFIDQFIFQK

Assay [2] deals with T2, intraflagellar transport protein 88 (IFT88), GFP-tagged (mouse) (UniProt Q61371).
T2 sequence: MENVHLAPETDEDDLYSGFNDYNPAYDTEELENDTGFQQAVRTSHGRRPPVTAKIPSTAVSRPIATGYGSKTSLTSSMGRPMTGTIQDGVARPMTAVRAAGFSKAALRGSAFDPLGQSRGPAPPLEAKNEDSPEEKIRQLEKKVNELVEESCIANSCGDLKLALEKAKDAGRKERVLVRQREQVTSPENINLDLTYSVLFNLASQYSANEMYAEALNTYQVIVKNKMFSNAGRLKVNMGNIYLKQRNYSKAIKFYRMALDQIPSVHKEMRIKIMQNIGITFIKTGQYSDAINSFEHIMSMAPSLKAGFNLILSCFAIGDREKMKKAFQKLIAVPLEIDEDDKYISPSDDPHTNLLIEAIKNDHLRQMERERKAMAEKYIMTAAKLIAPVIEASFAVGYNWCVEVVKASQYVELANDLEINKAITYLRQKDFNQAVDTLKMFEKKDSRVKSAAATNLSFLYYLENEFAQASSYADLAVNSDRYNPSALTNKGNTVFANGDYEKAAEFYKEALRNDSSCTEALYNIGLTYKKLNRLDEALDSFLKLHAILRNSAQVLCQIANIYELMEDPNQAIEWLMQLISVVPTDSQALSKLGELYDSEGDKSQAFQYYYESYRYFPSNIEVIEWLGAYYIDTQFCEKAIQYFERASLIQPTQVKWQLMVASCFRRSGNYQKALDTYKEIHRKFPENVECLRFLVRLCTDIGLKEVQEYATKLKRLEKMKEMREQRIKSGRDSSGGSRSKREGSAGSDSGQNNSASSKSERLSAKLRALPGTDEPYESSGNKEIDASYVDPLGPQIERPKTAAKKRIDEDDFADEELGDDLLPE
The experiment in a line: co-IP; HEK293T cells co-transfected, collected 48 h after transfection; lysed in ELB buffer (50 mM HEPES, 250 mM NaCl, 0.1% NP-40); IP with anti-GFP antibody overnight at 4°C, protein A-Sepharose; blots with anti-MYC and anti-GFP.

Assay [3] concerns the target T3, coiled-coil domain containing 42 (CCDC42), GFP-tagged (mouse) (UniProt Q5SV66).
T3 sequence: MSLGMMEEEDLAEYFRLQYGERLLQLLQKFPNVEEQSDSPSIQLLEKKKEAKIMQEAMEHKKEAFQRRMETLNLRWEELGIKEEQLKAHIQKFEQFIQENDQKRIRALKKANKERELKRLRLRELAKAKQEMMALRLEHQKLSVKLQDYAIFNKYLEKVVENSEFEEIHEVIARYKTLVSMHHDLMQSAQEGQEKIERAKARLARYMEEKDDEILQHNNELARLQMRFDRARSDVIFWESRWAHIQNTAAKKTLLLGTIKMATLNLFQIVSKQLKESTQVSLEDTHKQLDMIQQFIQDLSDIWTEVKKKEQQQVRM
Described as above.

Results on 2 molecules are retold here after PMC8195676.

These are yes or no findings as the source states them, for the method shown. Binding seen in cells or lysates may run through a third protein. Some binding calls cover weakened binding; strength is not graded here. Where a sequence is shown, tags or fusion partners need not be part of it.

In the case of “IFT20, FLAG-tagged (from UniProt Q61025 1-132)”, in assay [1], the binding result is “no binding”.

B1: cilia and flagella associated protein 53 (CFAP53), MYC-tagged (protein, UniProt Q9D439 1-514)
chain: T1 sequence
Consider B1, for which the binding entry in assay [2] and in assay [3] was “binds” each time.
